Assay results reported in patent US20240317877A1.
Changes are numbered by the printed parent chain. In names and notes the source's numbering stands. These are yes or no findings as the source states them, for the method shown. Some binding calls cover weakened binding; strength is not graded here. Values belong to the binder of their own block, whether it stands above or below them.

Key:
[1] = target: human transferrin receptor (human) (UniProt P02786); test: ELISA, plate-coated human TfR
[2] = target: human transferrin receptor (human) (UniProt P02786); test: ELISA on plate-coated human TfR, antibody diluted from 50 nM

B1: anti-human transferrin receptor antibody 128.1 with VH Y27H mutation (antibody, V domains shown)
VH: EVQLQQSGPELVKPGASMKISCKASGHSFTGYTMNWVKQSHGENLEWIGRINPHNGGTDYNQKFKDKAPLTVDKSSNTAYMELLSLTSEDSAVYYCARGYYYYSLDYWGQGTSVTVSS
VL: QIVLTQSPAIMSASPGEKVTMTCSASSSIDYIHWYQQKSGTSPKRWIYDTSKLASGVPARFSGSGSGTSYSLTISSMEPEDAATYYCHQRNSYPWTFGGGTRLEIR
- binding [1]: binds

B3: anti-human transferrin receptor antibody 128.1 with VH Y98A mutation (antibody, V domains shown)
VH: B1 VH with H27Y, Y102A
VL: B1 VL
- binding [2]: no binding (tested: 50 nM)

The next lines start with the values.

- binding [1]: binds
B2: anti-human transferrin receptor antibody 128.1 with VL Y94A mutation (antibody, V domains shown)
VH: B1 VH with H27Y
VL: B1 VL with Y93A

- binding [1]: binds
B4: anti-human transferrin receptor antibody 128.1 with VH Y99H mutation (antibody, V domains shown)
VH: B1 VH with H27Y, Y103H
VL: B1 VL
